Earlier results as cited in patent publication US20130197090A1, “POSTURAL STABILITY AND INCIDENT FUNCTIONS IN PATIENTS” (Chelsea Therapeutics, Inc., priority 2012, published 2013).
At least one read-out could not be matched to a standard name with certainty.

Conditions: cited from earlier work

NC(C(=O)O)C(O)c1ccc(O)c(O)c1 (stereo not drawn) [droxidopa, threo-3-(3,4-dihydroxyphenyl) serine]
permeability through the blood-brain barrier into the brain: limited permeability through the blood-brain barrier into the brain
